The results in this text go back to the supplement of paper PMC10849652.

Sequences of proteins named here, by UniProt entry; tags and fusion partners are left off. A change or cut given only in a name is not applied to a line headed by its entry.
UniProt O95149, whole entry, looked up: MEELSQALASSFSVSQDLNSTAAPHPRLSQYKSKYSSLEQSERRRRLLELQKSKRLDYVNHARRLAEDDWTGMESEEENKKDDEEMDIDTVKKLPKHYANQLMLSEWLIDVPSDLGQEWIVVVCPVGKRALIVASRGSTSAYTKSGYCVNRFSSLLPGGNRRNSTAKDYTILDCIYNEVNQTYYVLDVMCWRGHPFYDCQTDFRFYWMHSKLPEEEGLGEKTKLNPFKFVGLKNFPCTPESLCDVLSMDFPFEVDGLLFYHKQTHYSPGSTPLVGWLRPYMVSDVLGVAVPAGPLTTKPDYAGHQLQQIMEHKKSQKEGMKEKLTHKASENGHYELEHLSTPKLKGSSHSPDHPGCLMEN
UniProt P62318, whole entry, looked up: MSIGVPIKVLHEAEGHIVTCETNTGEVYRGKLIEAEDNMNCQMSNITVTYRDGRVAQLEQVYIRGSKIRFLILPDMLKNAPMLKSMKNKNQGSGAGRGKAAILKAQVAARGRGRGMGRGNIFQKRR
UniProt Q99523, whole entry, looked up: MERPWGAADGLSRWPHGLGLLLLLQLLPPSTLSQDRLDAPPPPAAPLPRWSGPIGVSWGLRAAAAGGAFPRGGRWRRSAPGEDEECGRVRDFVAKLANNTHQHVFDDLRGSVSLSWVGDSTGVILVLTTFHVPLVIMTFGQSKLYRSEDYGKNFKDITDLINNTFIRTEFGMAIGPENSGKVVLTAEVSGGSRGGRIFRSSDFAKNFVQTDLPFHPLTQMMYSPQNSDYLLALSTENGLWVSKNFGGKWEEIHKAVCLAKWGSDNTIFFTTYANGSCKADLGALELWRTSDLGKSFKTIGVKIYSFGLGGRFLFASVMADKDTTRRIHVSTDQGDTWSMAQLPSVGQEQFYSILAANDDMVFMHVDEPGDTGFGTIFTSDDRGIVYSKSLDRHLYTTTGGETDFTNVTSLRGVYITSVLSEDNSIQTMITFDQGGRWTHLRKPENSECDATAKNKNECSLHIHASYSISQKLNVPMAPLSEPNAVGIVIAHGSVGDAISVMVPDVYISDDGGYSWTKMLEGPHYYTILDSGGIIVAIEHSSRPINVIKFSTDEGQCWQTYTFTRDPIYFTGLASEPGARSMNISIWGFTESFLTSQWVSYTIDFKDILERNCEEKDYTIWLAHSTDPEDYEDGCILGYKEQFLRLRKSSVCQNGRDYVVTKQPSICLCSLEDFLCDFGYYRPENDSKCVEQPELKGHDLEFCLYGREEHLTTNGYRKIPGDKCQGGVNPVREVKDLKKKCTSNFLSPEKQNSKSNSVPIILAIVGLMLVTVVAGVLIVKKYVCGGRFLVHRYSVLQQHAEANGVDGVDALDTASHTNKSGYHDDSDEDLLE
UniProt P23497: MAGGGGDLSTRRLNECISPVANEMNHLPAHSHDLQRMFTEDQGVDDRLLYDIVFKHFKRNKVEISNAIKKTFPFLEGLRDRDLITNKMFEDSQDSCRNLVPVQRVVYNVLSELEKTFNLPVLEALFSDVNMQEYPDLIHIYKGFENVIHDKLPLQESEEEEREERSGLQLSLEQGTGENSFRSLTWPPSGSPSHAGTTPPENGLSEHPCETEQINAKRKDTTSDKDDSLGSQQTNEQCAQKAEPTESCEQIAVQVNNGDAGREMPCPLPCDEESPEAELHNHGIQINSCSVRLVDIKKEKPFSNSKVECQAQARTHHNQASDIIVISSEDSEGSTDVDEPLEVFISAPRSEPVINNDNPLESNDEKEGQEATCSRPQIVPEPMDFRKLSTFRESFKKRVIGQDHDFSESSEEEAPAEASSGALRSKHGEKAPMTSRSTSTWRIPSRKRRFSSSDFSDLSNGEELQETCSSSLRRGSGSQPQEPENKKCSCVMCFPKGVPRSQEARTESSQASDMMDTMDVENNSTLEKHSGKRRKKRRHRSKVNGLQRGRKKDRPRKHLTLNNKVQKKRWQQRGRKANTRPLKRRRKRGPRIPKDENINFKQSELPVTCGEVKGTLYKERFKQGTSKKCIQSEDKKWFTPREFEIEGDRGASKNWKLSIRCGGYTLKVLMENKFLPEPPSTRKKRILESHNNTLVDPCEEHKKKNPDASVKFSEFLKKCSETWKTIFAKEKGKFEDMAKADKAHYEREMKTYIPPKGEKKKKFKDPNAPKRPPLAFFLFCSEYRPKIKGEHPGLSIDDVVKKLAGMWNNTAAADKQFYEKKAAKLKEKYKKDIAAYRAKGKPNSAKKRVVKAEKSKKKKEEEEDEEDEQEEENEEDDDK
UniProt Q13573: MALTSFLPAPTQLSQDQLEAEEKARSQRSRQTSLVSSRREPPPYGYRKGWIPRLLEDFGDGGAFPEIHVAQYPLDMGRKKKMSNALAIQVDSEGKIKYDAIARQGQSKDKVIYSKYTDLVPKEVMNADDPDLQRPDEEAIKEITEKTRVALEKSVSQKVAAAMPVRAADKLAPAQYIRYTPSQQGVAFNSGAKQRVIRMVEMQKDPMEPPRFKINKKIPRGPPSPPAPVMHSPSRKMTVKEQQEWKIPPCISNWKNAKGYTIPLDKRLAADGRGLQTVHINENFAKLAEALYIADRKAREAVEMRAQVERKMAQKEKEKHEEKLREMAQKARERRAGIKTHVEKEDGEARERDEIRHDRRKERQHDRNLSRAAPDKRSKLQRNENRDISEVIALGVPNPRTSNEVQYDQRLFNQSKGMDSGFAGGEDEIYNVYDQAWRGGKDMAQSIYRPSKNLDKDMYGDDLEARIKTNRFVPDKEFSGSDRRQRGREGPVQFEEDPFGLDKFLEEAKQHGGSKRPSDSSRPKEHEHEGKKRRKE
UniProt Q9UNH7: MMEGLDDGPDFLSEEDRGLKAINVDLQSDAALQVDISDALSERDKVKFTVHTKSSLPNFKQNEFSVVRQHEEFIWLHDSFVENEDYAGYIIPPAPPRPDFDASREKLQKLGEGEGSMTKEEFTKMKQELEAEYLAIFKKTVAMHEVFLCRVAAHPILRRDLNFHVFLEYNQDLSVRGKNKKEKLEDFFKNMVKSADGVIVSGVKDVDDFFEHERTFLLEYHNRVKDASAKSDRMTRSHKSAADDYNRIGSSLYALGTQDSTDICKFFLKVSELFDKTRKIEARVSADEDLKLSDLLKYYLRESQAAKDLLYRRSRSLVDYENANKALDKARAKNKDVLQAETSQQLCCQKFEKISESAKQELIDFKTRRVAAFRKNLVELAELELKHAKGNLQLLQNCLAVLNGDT
UniProt Q9NRG4: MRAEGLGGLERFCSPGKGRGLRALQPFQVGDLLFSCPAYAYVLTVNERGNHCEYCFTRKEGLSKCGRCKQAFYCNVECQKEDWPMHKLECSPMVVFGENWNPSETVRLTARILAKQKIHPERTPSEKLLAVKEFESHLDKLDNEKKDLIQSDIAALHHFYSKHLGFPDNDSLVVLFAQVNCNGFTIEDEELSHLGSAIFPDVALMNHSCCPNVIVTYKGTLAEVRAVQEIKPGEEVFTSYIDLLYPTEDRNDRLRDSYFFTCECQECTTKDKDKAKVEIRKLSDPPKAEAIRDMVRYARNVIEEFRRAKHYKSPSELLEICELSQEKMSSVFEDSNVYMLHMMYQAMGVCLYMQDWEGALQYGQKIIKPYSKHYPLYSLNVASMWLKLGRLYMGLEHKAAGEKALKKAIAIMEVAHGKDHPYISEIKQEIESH
UniProt Q8WU79: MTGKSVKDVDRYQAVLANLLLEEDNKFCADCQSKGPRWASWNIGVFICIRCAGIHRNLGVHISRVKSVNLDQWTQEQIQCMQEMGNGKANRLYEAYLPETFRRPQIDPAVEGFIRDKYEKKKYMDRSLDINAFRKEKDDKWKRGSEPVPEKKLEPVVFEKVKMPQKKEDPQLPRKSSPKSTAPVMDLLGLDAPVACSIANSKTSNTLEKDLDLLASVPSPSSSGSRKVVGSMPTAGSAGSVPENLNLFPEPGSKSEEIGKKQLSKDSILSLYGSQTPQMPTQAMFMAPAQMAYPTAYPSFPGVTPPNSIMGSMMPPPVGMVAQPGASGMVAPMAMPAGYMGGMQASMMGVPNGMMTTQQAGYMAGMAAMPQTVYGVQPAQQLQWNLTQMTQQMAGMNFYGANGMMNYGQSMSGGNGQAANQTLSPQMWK

Common to all, as to assay: log2 fold change, soluble protein after heating vs DMSO (PISA); higher = thermal stabilisation; K562 cells, 10 uM, 30 min; active = over 0.2 and 3.5 SD of the protein, either way, in both replicates (recomputed)
Compound in assay [1]: COC1=CC=C(C=C1)CN2C=CC3=C2C=C(C=C3)C(=O)NO
The method, boiled down: (§1)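 Values are thermal stability changes relative to control samples and are taken from duplicates. They are stated as log2 fold changes. Before quantification by TMTpro 16plex LC-MS/MS with equalised channel sums, K562 cells at 2×10^6 cells/mL were treated with 10 μM compound for 30 min, heated in aliquots for 3 min across 48°C-58°C, pooled, extracted in PBS with 0.5% NP-40 at 4°C, and centrifuged at 21,000xg for 90 min to give the soluble supernatant.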

Compound in another assay: CON(C)C(=O)N1N=C(c2cc(F)ccc2F)S[C@@]1(CCCN)c1ccccc1 [filanesib]
The method, boiled down:
as §1

Compound in the next assay: CO[C@H]1C[C@@H]2CC[C@@H](C)[C@@](O)(O2)C(=O)C(=O)N2CCCC[C@H]2C(=O)O[C@H]([C@H](C)C[C@@H]2CC[C@H](n3cnnn3)[C@H](OC)C2)CC(=O)[C@H](C)/C=C(\C)[C@@H](O)[C@@H](OC)C(=O)[C@H](C)C[C@H](C)/C=C/C=C/C=C/1C [zotarolimus]
The method, boiled down:
as §1

Compound in the next assay: COc1cc(C(=O)O)ccc1NC(=O)[C@@H]1N[C@@H](CC(C)(C)C)[C@](C#N)(c2ccc(Cl)cc2F)[C@H]1c1cccc(Cl)c1F [idasanutlin]
The method, boiled down:
as §1

Compound in the next assay: COc1cc(Nc2ncc3c(n2)-c2ccc(Cl)cc2C(c2c(F)cccc2OC)=NC3)ccc1C(=O)O [alisertib]
The method, boiled down:
as §1

Compound in assay [2]: COc1cc2nc(-c3cc(F)ccc3O)nc(N[C@@H]3CNC[C@H]3C(C)(C)O)c2cc1OC
The method, boiled down: as §1

Compound in the next assay: COc1cc2ncnc(Nc3ccc(F)c(Cl)c3)c2cc1OCCCN1CCOCC1 [gefitinib]
The method, boiled down:
as §1

Compound in assay [3]: COc1cccc2cc(-c3nc([C@H]4CC[C@H](C(=O)O)CC4)n4ncnc(N)c34)[nH]c12
The method, boiled down:
as §1

Compound in the next assay: CS(=O)(=O)CCNCc1ccc(-c2ccc3ncnc(Nc4ccc(OCc5cccc(F)c5)c(Cl)c4)c3c2)o1 [lapatinib]
The method, boiled down:
as §1

Compound in another assay: CS(=O)(=O)N1CCN(Cc2cc3nc(-c4cccc5[nH]ncc45)nc(N4CCOCC4)c3s2)CC1 [pictilisib]
The method, boiled down:
as §1

Compound in assay [4]: CS(=O)(=O)c1ccc(-c2cnc(N)c(C(=O)Nc3ccccc3)n2)cc1
The method, boiled down:
as §1

Compound in another assay: C[C@@H](Oc1cc(-c2cnn(C3CCNCC3)c2)cnc1N)c1c(Cl)ccc(F)c1Cl [crizotinib]
The method, boiled down: as §1

Compound in assay [5]: C[C@@H]1COCCN1C2=NC(=NC(=C2)C3(CC3)S(=O)(=O)C)C4=C5C=CNC5=CC=C4
The method, boiled down: as §1

Compound in assay [6]: C[C@H](C1=CC=C(C=C1)C(=O)NC2=C3C=CNC3=NC=C2)N
The method, boiled down:
as §1

Compound in a further assay: Cc1cc(Nc2cc(CN3CCOCC3)c3nc(C)c(Cc4ccc(Cl)cc4F)n3n2)n[nH]1 [gandotinib]
The method, boiled down: as §1

Compound in assay [7]: Cc1cc(SCc2sc(-c3ccc(C(F)(F)F)cc3)nc2C)ccc1OCC(=O)O
The method, boiled down: as §1

Compound in a further assay: Cc1ccc(-n2nc(C(C)(C)C)cc2NC(=O)Nc2ccc(OCCN3CCOCC3)c3ccccc23)cc1 [doramapimod]
The method, boiled down:
as §1

Compound in the next assay: Cc1ccc(C(=O)N(CCCN)[C@@H](c2nc3cc(Cl)ccc3c(=O)n2Cc2ccccc2)C(C)C)cc1 [ispinesib]
The method, boiled down: as §1

Compound in the next assay: C[C@H](Nc1ncnc2nc[nH]c12)c1cc2cccc(Cl)c2c(=O)n1-c1ccccc1 [duvelisib]
The method, boiled down:
as §1

Compound in the next assay: Cc1cc(Nc2cc(N3CCN(C)CC3)nc(Sc3ccc(NC(=O)C4CC4)cc3)n2)n[nH]1 [tozasertib]
The method, boiled down: as §1

Some of the results follow.

On to SNUPN (UniProt O95149), for which the log2 fold change in assay [1] is inactive: 0.001; in the assay with filanesib it was inactive: -0.09; with zotarolimus, inactive: -0.007; in the assay with idasanutlin, inactive: 0.05; with alisertib, inactive: -0.013; in assay [2], inactive: -0.05. In addition, the log2 fold change was inactive: 0.014 with gefitinib; inactive: 0.005 in assay [3]; inactive: 0.019 with lapatinib; inactive: -0.021 in the assay with pictilisib; inactive: 0.019 in [4]; inactive: -0.187 with crizotinib. Moreover, the log2 fold change in assay [5] was inactive: 0.045; in assay [6] it was inactive: -0.007; with gandotinib, inactive: -0.074; in assay [7], inactive: -0.014; with doramapimod it was inactive: -0.007; with ispinesib, inactive: 0.029.

For SNRPD3 (UniProt P62318), the log2 fold change in assay [1] is inactive: -0.169; in the assay with filanesib, inactive: 0.152; in the assay with zotarolimus, inactive: -0.051; with idasanutlin it was inactive: 0.025; with alisertib, inactive: -0.132; in [2] it was inactive: 0.039. The log2 fold change was inactive: -0.019 with gefitinib; inactive: 0.023 in assay [3]; inactive: 0.028 with lapatinib; inactive: 0.064 with pictilisib; inactive: -0.102 in [4]; inactive: 0.011 with crizotinib. Moreover, the log2 fold change is inactive: 0.036 in assay [5]; inactive: 0.041 in [6]; inactive: 0.034 with gandotinib; inactive: -0.04 in assay [7]; inactive: 0.055 in the assay with doramapimod; inactive: 0.006 with ispinesib.

SORT1 (UniProt Q99523): the log2 fold change is inactive: 0.058 in assay [1]; inactive: -0.066 with filanesib; inactive: 0.002 with zotarolimus; inactive: 0.008 in the assay with idasanutlin; inactive: -0.016 with alisertib; inactive: -0.032 in [2]. For the same target, the log2 fold change was inactive: 0.028 with gefitinib; inactive: 0.056 in assay [3]; inactive: 0.022 with lapatinib; inactive: 0.003 in the assay with pictilisib; inactive: 0.007 in assay [4]; active: -0.742 with crizotinib. Further, the log2 fold change in [5] is inactive: -0.019; in [6] it was inactive: -0.051; with gandotinib it was inactive: -0.069; in assay [7], inactive: -0.066; in the assay with doramapimod, inactive: -0.042; in the assay with ispinesib it was inactive: -0.032.

For SP100 isoform 4 (UniProt P23497), the log2 fold change in assay [1] is inactive: 0.05; in the assay with filanesib it was inactive: 0; with zotarolimus it was inactive: 0.013; in the assay with idasanutlin it was inactive: -0.022; in the assay with alisertib, inactive: -0.026; in [2], active: -0.242. Moreover, the log2 fold change is inactive: 0.024 with gefitinib; inactive: 0.036 in assay [3]; inactive: 0.188 in the assay with lapatinib; inactive: 0.013 in the assay with pictilisib; inactive: -0.002 in [4]; inactive: 0.062 with crizotinib. The log2 fold change in assay [5] is inactive: 0.071; in assay [6] it was inactive: -0.1; with gandotinib, inactive: -0.008; in [7] it was inactive: -0.016; in the assay with doramapimod it was inactive: -0.046; with ispinesib, inactive: 0.062.

In the case of SNW1 (UniProt Q13573), the log2 fold change in assay [1] was inactive: 0.014; in the assay with filanesib, inactive: 0.039; in the assay with zotarolimus it was inactive: -0.068; with idasanutlin it was inactive: 0.034; in the assay with alisertib, inactive: -0.08; in [2], inactive: 0.073. Moreover, the log2 fold change with gefitinib is inactive: -0.068; in [3], inactive: 0; with lapatinib it was inactive: 0.011; in the assay with pictilisib, inactive: -0.035; in assay [4] it was inactive: -0.035; in the assay with crizotinib it was inactive: 0.068. For the same target, the log2 fold change in assay [5] is inactive: -0.062; in [6] it was inactive: 0.015; with gandotinib, inactive: 0.045; in [7] it was inactive: -0.045; with doramapimod, inactive: 0; in the assay with ispinesib, inactive: -0.048.

SNX6 (UniProt Q9UNH7): the log2 fold change in assay [1] was inactive: -0.036; in the assay with filanesib, inactive: -0.187; with zotarolimus, inactive: 0.02; with idasanutlin, inactive: -0.01; with alisertib, inactive: -0.035; in [2], inactive: -0.109. The log2 fold change in the assay with gefitinib was inactive: -0.123; in [3] it was inactive: 0.004; with lapatinib, inactive: -0.055; with pictilisib it was inactive: -0.252; in [4], inactive: -0.169; with crizotinib, inactive: -0.323. The log2 fold change in [5] is inactive: -0.014; in assay [6], inactive: -0.033; with gandotinib, active: -0.5; in [7] it was inactive: 0.061; in the assay with doramapimod, inactive: -0.036; with ispinesib, inactive: -0.281.

As to SMYD2 (UniProt Q9NRG4), the log2 fold change in [1] is inactive: -0.238; with filanesib, inactive: 0.106; with zotarolimus, inactive: -0.009; with idasanutlin, inactive: -0.144; in the assay with alisertib, inactive: 0.173; in assay [2], inactive: 0.022. Besides, the log2 fold change in [3] is inactive: -0.018; with lapatinib, inactive: -0.066; with pictilisib, inactive: 0.007; in assay [4], inactive: 0.156; in the assay with crizotinib, inactive: -0.139; in assay [5], inactive: 0.033. Further, the log2 fold change in [6] was inactive: 0.322; in the assay with duvelisib, inactive: -0.097; with gandotinib it was inactive: -0.085; in the assay with tozasertib, inactive: 0.14; in assay [7], inactive: 0.095; with doramapimod, inactive: 0.063. Moreover, the log2 fold change in the assay with ispinesib is inactive: -0.082.

As to SMAP2 (UniProt Q8WU79), the log2 fold change in assay [1] is inactive: -0.029; with filanesib, inactive: 0.048; with zotarolimus it was inactive: 0.045; in the assay with idasanutlin, inactive: -0.039; with alisertib, inactive: 0.11; in assay [2], active: 0.247. Further, the log2 fold change was inactive: 0.043 with gefitinib; inactive: -0.072 in [3]; inactive: -0.009 with lapatinib; inactive: -0.015 with pictilisib; inactive: 0.04 in [4]; inactive: 0.097 in the assay with crizotinib. Moreover, the log2 fold change is inactive: 0.015 in assay [5]; inactive: 0.04 in assay [6]; inactive: -0.011 with gandotinib; inactive: 0.096 in [7]; inactive: -0.047 with doramapimod; inactive: -0.006 with ispinesib.
